Substitutions are numbered along the chain they refer to. The exact form of at least one protein or probe is not confirmed. For part of these data: No signal at the amounts used counts as a negative. For part of these data: Where a protein sequence is shown, tags need not be part of it. For part of these data: A weaker result is weaker than the reference pair of the same experiment. For part of these data: At least one verdict rests on a figure or table, not on a statement of the authors. For part of these data: The direction of at least one scale is not stated here.
Columns and labels:
FurYdiV [1] = target: T1, FurYdiV (UniProt P0A9A9); test: EMSA; details: 100 uM MnCl2; EMSA: 10 mM Tris-HCl pH 7.5, 1 mM MgCl2, 40 mM KCl, 0.1 mg/ml BSA, 5% glycerol, +/-100 uM MnCl2, 25 nM DNA, 37 C 15 min; recombinant protein; label: FAM
T1 sequence (looked up, limits assumed): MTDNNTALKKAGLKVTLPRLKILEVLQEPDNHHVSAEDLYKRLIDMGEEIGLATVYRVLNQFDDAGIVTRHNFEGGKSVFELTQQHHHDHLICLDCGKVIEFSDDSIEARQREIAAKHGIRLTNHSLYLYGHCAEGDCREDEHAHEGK

Fur P29AYdiV = target: T2, Fur P29AYdiV (UniProt P0A9A9); test: EMSA; details: 100 uM MnCl2, 30 uM protein; EMSA: 10 mM Tris-HCl pH 7.5, 1 mM MgCl2, 40 mM KCl, 0.1 mg/ml BSA, 5% glycerol, +/-100 uM MnCl2, 25 nM DNA, 37 C 15 min; recombinant protein; label: FAM
T2 sequence (looked up, limits assumed): T1 sequence (looked up, limits assumed) with P29A

ΔydiV FurSlyD = target: T3, ΔydiV FurSlyD (UniProt P0A9A9); test: EMSA; details: 100 uM MnCl2, 30 uM protein; EMSA: 10 mM Tris-HCl pH 7.5, 1 mM MgCl2, 40 mM KCl, 0.1 mg/ml BSA, 5% glycerol, +/-100 uM MnCl2, 25 nM DNA, 37 C 15 min; recombinant protein; label: FAM
T3 sequence (looked up, limits assumed): T1 sequence (looked up, limits assumed)

FurYdiV,SlyD = target: T4, FurYdiV,SlyD (UniProt P0A9A9); test: EMSA; details: 100 uM MnCl2, 30 uM protein; EMSA: 10 mM Tris-HCl pH 7.5, 1 mM MgCl2, 40 mM KCl, 0.1 mg/ml BSA, 5% glycerol, +/-100 uM MnCl2, 25 nM DNA, 37 C 15 min; recombinant protein; label: FAM
T4 sequence (looked up, limits assumed): T1 sequence (looked up, limits assumed)

Fur P29ASlyD = target: T5, Fur P29ASlyD (UniProt P0A9A9); test: EMSA; details: 100 uM MnCl2, 30 uM protein; EMSA: 10 mM Tris-HCl pH 7.5, 1 mM MgCl2, 40 mM KCl, 0.1 mg/ml BSA, 5% glycerol, +/-100 uM MnCl2, 25 nM DNA, 37 C 15 min; recombinant protein; label: FAM
T5 sequence (looked up, limits assumed): T1 sequence (looked up, limits assumed) with P29A

FurSlyD = target: T6, FurSlyD (UniProt P0A9A9); test: EMSA; details: 100 uM MnCl2, 30 uM protein; EMSA: 10 mM Tris-HCl pH 7.5, 1 mM MgCl2, 40 mM KCl, 0.1 mg/ml BSA, 5% glycerol, +/-100 uM MnCl2, 25 nM DNA, 37 C 15 min; recombinant protein; label: FAM
T6 sequence (looked up, limits assumed): T1 sequence (looked up, limits assumed)

Zn1Fur = target: T7, Zn1Fur (UniProt P0A9A9); test: EMSA; details: no Mn2+ added; EMSA: 10 mM Tris-HCl pH 7.5, 1 mM MgCl2, 40 mM KCl, 0.1 mg/ml BSA, 5% glycerol, +/-100 uM MnCl2, 25 nM DNA, 37 C 15 min; recombinant protein; label: FAM
T7 sequence (looked up, limits assumed): T1 sequence (looked up, limits assumed)

Fur P18A = Fur P18A (UniProt P0A9A9); test: FP; details: 100 uM MnCl2; FP: 10 mM Tris-HCl pH 7.5, 75 mM NaCl, +/-150 uM MnCl2 (100 uM in Fig 4E), 1 nM DNA, 37 C 15 min; recombinant protein; label: FAM
Zn1FurYdiV = target: T8, Zn1FurYdiV (UniProt P0A9A9); test: FP; details: EDTA-treated Fur, no Mn2+ added; FP: 10 mM Tris-HCl pH 7.5, 75 mM NaCl, +/-150 uM MnCl2 (100 uM in Fig 4E), 1 nM DNA, 37 C 15 min; recombinant protein; label: FAM
T8 sequence (looked up, limits assumed): T1 sequence (looked up, limits assumed)

FurYdiV [2] = target: T1, FurYdiV; test: FP; details: 150 uM MnCl2; FP: 10 mM Tris-HCl pH 7.5, 75 mM NaCl, +/-150 uM MnCl2 (100 uM in Fig 4E), 1 nM DNA, 37 C 15 min; recombinant protein; label: FAM
Fur P18ASlyD = Fur P18ASlyD (UniProt P0A9A9); test: FP; details: 100 uM MnCl2; FP: 10 mM Tris-HCl pH 7.5, 75 mM NaCl, +/-150 uM MnCl2 (100 uM in Fig 4E), 1 nM DNA, 37 C 15 min; recombinant protein; label: FAM
Fur P18AYdiV = Fur P18AYdiV (UniProt P0A9A9); test: FP; details: 100 uM MnCl2; FP: 10 mM Tris-HCl pH 7.5, 75 mM NaCl, +/-150 uM MnCl2 (100 uM in Fig 4E), 1 nM DNA, 37 C 15 min; recombinant protein; label: FAM

GATAATGATAATGATAATGATAATGATAATGA (double strand) [Fur box DNA]
binding result (FurYdiV [1]): no binding | binding result (Fur P29AYdiV): no binding | binding result (ΔydiV FurSlyD): no binding | binding result (FurYdiV,SlyD): no binding | binding result (Fur P29ASlyD): no binding | binding result (FurSlyD): no binding | binding result (Zn1Fur): binds | binding result (Fur P18A): binds more weakly | Kd (Zn1FurYdiV): 146 µM | binding signal (fold lower affinity than native Fur) (FurYdiV [2]): 300 | binding result (Fur P18ASlyD): binds more weakly | binding result (Fur P18AYdiV): binds more weakly

Reference: PMC7515728, “YdiV regulates Escherichia coli ferric uptake by manipulating the DNA-binding ability of Fur in a SlyD-dependent manner” (Nucleic Acids Research, 2020)
